The subject of one test is VSV-EBOV-GP. Kind of test: microbe, parasite or virus in culture. The note with it: Zaire ebolavirus, Vero, 16 h. The class given is cell-based, Ebola virus (EBOV/H.sap-tc/COD/76/Yambuku-Mayinga).
The next test has as its target EBOV-GP (Zaire ebolavirus, UniProt Q05320). Put plainly: biochemical. The test is classed as binding, Zaire EBOV (strain Mayinga-76).

By UniProt entry, the sequences of proteins in these tests, tags left out. Residues count along the entry.
UniProt Q05320, 33-650 limits assumed: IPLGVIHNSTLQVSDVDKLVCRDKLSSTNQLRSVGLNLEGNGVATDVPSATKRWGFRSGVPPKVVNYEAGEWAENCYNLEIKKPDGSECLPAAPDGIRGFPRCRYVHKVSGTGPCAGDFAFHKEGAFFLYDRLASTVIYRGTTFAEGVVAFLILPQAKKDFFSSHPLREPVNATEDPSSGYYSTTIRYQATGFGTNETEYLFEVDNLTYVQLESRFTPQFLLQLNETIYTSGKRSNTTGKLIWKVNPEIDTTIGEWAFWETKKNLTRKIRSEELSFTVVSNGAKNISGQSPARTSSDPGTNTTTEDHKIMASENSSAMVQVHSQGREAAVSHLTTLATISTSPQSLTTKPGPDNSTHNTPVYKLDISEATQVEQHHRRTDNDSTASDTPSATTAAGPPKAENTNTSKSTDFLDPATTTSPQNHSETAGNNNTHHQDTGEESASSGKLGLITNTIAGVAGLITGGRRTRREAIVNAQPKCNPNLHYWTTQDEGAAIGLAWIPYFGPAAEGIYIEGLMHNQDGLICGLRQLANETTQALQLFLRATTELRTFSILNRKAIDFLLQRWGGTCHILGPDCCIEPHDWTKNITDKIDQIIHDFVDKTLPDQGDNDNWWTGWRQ

For the compound `CC/C(=C(\c1ccccc1)c1ccc(OCCN(C)C)cc1)c1ccccc1` [Tamoxifen, tamoxifen, reference compound], a half-maximal effect in the test with VSV-EBOV-GP (EC50) was put at 190 nM. The compound also had a Kd at EBOV-GP of 32 µM.

These data come from publication PMC12066687 (Frontiers in Immunology, 2025).
